Measurements from publication doi:10.1101/2024.10.21.619555.

Sequences of proteins named here, by UniProt entry; tags and fusion partners are left off. Residues count along the entry.
UniProt P01137, residues 279-390: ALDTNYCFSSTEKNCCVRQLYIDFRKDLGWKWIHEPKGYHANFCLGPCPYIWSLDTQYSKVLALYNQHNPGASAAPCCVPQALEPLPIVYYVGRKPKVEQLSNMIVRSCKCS
UniProt Q92783: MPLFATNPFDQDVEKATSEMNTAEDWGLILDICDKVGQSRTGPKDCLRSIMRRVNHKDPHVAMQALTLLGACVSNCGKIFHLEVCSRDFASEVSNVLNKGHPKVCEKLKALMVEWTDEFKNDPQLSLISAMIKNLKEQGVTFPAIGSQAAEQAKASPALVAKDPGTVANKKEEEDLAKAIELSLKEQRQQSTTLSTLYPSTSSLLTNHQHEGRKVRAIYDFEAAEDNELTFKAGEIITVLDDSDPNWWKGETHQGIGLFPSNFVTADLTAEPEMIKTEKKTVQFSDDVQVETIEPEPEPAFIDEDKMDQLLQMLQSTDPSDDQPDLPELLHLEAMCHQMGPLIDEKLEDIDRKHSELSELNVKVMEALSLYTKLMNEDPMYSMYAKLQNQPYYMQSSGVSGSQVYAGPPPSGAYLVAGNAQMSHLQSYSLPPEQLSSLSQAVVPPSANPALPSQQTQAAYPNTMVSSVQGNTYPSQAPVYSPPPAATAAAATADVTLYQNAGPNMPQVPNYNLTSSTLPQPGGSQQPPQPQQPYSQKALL
UniProt P04406: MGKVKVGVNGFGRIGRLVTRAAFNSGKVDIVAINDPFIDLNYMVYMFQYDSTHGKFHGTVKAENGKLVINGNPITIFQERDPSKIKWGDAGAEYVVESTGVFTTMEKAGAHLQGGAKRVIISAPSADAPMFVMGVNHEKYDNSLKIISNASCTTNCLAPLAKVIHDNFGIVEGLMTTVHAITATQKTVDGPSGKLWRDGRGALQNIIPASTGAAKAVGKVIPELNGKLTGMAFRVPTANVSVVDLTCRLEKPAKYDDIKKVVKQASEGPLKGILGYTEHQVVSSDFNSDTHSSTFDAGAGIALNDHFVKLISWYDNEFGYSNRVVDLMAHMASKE

What follows are substances tested against TurboID-DR6 (UniProt O75509) (assay: proximity labelling).

binding, binds:
transforming growth factor β1 (TGFB1) (from UniProt P01137 279-390)
signal-transducing adapter molecule (STAM) (from UniProt Q92783 1-540)
glyceraldehyde 3-phosphate dehydrogenase (GAPDH) (from UniProt P04406 1-335)

These are yes or no findings as the source states them, for the method shown. In cells and extracts the contact can be indirect. A yes stands for co-enrichment or nearness to the bait. Other partners may have been found.
